Screen size: about 2,400 compounds; about 20 (0.8%) were called active.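 Rule for the calls: active = AC50 no more than ten times the highest tested concentration, or full inhibition at every dose giving a flat fit (cut at about 30 µM in these data); inconclusive = flat fit with activity between 30% and 70%, or poor-quality invalid fit; inactive = AC50 more than ten times the top tested dose.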 The list shows a part of the results.

The test in a line: inhibitors of ADP-Glo detection reagents, dose response, artefact control for GSK-3a inhibitor project, biochemical, luminescence, cell-free, homogeneous (AID 463205).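 Note: kinase-free counter-screen against the ADP-Glo detection reagents only; potency is for inhibitors that reduce the luminescence signal.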 Conditions: 5 uM ADP.
For the compound `COC(=O)CSc1ncnc2c1sc1nc3c(cc12)COC(C)(C)C3`, the AC50 was inactive: > 30 µM.

Regarding `Cc1csc(NC(=O)C2CCCN2C(=O)OCC(C)C)n1` (centres undefined), the AC50 is inactive: > 30 µM.

Consider `COc1cc2c(cc1OC)C(c1ccc(C)o1)CC(=O)N2` (centres undefined), for which the AC50 is inactive: > 30 µM.

Regarding `COc1ccc(C(=O)NCC(=O)N/N=C/C=C/c2ccccc2)cc1OC`, the AC50 was inactive: > 30 µM.

Consider `O=C(NC1(C(F)(F)F)NC(=O)N(Cc2cccnc2)C1=O)c1ccccc1` (centres undefined), for which the AC50 is inactive: > 30 µM.

Take `COc1cc(/C=N/NC(=O)c2ccncc2)ccc1OCCN1CCCCC1`: the AC50 is inactive: > 30 µM.

On to `CCCCc1ccc(NC(=O)N[C@H](C(=O)O)C(C)C)cc1`, for which the AC50 is inactive: > 30 µM.

For the compound `Cc1cc(C)nc(NC(=O)/C=C/c2cccs2)c1`, the AC50 is inactive: > 30 µM.

`Cc1ccc(C(=O)N2NC(c3ccccc3F)C3C(=O)N(c4cccc(C)c4)C(=O)C32)cc1` (centres undefined): the AC50 was inactive: > 30 µM.

With `Cc1cc(C(C#N)c2ccccc2F)n2ncnc2n1` (centres undefined), the AC50 is inactive: > 30 µM.

Take `CC(=O)c1cc(-c2ccc(F)cc2)n(CCC(=O)NC(C)(C)C)c1C`: the AC50 was inactive: > 30 µM.

Consider `C#CCSc1nnc(-c2ccc(O)cc2)o1`, for which the AC50 was inactive: > 30 µM.

On to `COC(=O)c1ccc(CSc2n[nH]c(=S)s2)o1`, for which the AC50 was inactive: > 30 µM.

In the case of `CCOC(=O)c1[nH]c2c(c1-c1ccc(OC)cc1)C(=O)CC(c1ccc(OC)c(OC)c1)C2` (centres undefined), the AC50 is inactive: > 30 µM.

As for `Cn1cc([N+](=O)[O-])c(C(=O)Nc2cnn(Cc3ccc(F)cc3)c2)n1`, the AC50 was inactive: > 30 µM.

Take `Cc1onc(-c2ccccc2Cl)c1C(=O)Nc1cccc(-c2nc3ncccn3c2C)c1`: the AC50 was inactive: > 30 µM.

In the case of `O=C1/C(=C/c2ccc(O)c(O)c2)Oc2cc(O)ccc21`, the AC50 was inactive: > 30 µM.

On to `COc1ccc(Nc2nc(-c3ccccc3)cs2)cc1`, for which the AC50 was inactive: > 30 µM.

Regarding `CCC(=O)C1CCCN(C(=O)CCc2nnc(-c3ccc4c(c3)OCO4)o2)C1` (centres undefined), the AC50 was inactive: > 30 µM.

In the case of `O=C1OCCC/C1=C\c1ccc2c(c1)OCO2`, the AC50 is inactive: > 30 µM.

As for `CSc1cccc(NC(=O)CN(C)S(=O)(=O)c2cnc[nH]2)c1`, the AC50 was inactive: > 30 µM.

For `C[C@H](CO)N1C[C@H](C)[C@@H](CN(C)S(=O)(=O)c2ccc(F)cc2)Oc2c(NC(=O)Cc3ccccc3)cccc2C1=O`, the AC50 is inactive: > 30 µM.

`O=C1N/C(=N\S(=O)(=O)Cc2ccccc2)S/C1=C/c1cccc([N+](=O)[O-])c1`: the AC50 was inactive: > 30 µM.

As to `CC[n+]1c(/C=C/N(C)c2ccccc2)n(-c2ccccc2)c2ccc(-c3nc4ccccc4s3)cc21`, the AC50 was inactive: > 30 µM.

On to `COc1ccc(C(=O)c2ccccc2Cl)cc1`, for which the AC50 is inactive: > 30 µM.

Consider `COc1ccc(C(=O)c2cc(C(C)=O)c(Nc3ccccc3)s2)cc1`, for which the AC50 was inactive: > 30 µM.

For the compound `CCCC(NS(=O)(=O)c1ccc(OC)cc1)C(=O)O` (centres undefined), the AC50 is inactive: > 30 µM.

With `COc1ccccc1NC(=O)c1cc2ccc(O)cc2o/c1=N\O`, the AC50 was inactive: > 30 µM.

For the compound `NC1=NC(=O)/C(=C\c2ccco2)S1`, the AC50 was inactive: > 30 µM.

For `O=[N+]([O-])c1ccc(-c2nnc(-c3ccccc3)c(NCCCO)n2)cc1`, the AC50 was inactive: > 30 µM.

As to `c1ccc(-c2noc(-c3ccc4c(c3)OCO4)n2)cc1`, the AC50 is inactive: > 30 µM.

For `Cc1c(C(=O)N2CCOCC2)oc2ccc(S(=O)(=O)N3CCCC3)cc12`, the AC50 is inactive: > 30 µM.

Turning to `COc1cccc(N=C2NC(=O)/C(=C/c3cc([N+](=O)[O-])ccc3O)S2)c1`, the AC50 is inactive: > 30 µM.

Turning to `CCCCOC(=O)Nc1nnc(COc2ccccc2)s1`, the AC50 was inactive: > 30 µM.

Turning to `Oc1ccc2cccnc2c1`, the AC50 is inactive: > 30 µM.

In the case of `O=c1[nH]c2c(s1)C(c1cccnc1)C1C3CCC(C3)C1S2` (centres undefined), the AC50 was inactive: > 30 µM.

Regarding `COc1ccccc1C(=O)NC(C)c1ccccc1` (centres undefined), the AC50 was inactive: > 30 µM.

With `O=c1[nH]nc(SCCS(=O)(=O)c2ccc(F)cc2)n1-c1ccccc1C(F)(F)F`, the AC50 is inactive: > 30 µM.

Consider `COc1ccc(OC)c(/C=C2\NC(=O)NC2=O)c1`, for which the AC50 is inactive: > 30 µM.

Turning to `CC(=O)c1c(O)ccc2c(-c3ccccc3)cc(=O)oc12`, the AC50 was inactive: > 30 µM.

Consider `COC(=O)c1c(NC(=O)CN2C(=O)NC3(CCC(C)CC3)C2=O)sc2c1CCC2` (centres undefined), for which the AC50 is inactive: > 30 µM.

With `COC(=O)/C=C1/S/C(=N/NC(=O)c2ccccc2OC)NC1=O`, the AC50 was inactive: > 30 µM.

Consider `Clc1ccccc1C1=Nn2c(nnc2-c2ccncc2)SC1`, for which the AC50 is inactive: > 30 µM.

`C=CCNc1nc(N)c(C(=O)c2ccc3c(c2)OCO3)s1`: the AC50 was inactive: > 30 µM.

Regarding `Oc1ccc(-c2csc(Nc3cccnc3)n2)cc1`, the AC50 was inactive: > 30 µM.

For the compound `COc1ccc(C2=Nn3c(nnc3-c3cccnc3)SC2)cc1OC`, the AC50 is inactive: > 30 µM.

For `Cn1c(=O)c2[nH]cnc2n(-c2ccccc2)c1=O`, the AC50 was inactive: > 30 µM.

For the compound `C#CCOCCOCCOCCNc1nc(N2CCN(C(=O)CCCCCCCCCCNC(=O)[C@H](CCCCN)n3cc(C)nn3)CC2)nc(N2CCN(C(=O)CCCCCCCCCCNC(=O)[C@@H]([C@H](C)CC)n3cc(CCCCCN)nn3)CC2)n1`, the AC50 was inactive: > 30 µM.

On to `Fc1ccccc1-c1nnc2ccc3ccccc3n12`, for which the AC50 is inactive: > 30 µM.

Regarding `COc1c(NC(C)=O)c2ccccc2c2ccccc12`, the AC50 is inactive: > 30 µM.

In the case of `CN1CCN(c2ccc(NC(=O)c3ccc(Br)o3)cc2)CC1`, the AC50 is inactive: > 30 µM.

Take `COc1cc(N/N=C/c2ccccc2O)ncn1`: the AC50 was inactive: > 30 µM.

In the case of `Cc1cccc(C)c1OCC(O)CNC(C)(C)C` (centres undefined), the AC50 was inactive: > 30 µM.

Consider `N#CC1=C(S)N(c2ccccc2)C(c2ccco2)NC1=O` (centres undefined), for which the AC50 is inactive: > 30 µM.

Turning to `CCOC(=O)c1cnc2ccc(OCC)cc2c1N1CCN(c2ccccc2OC)CC1`, the AC50 was inactive: > 30 µM.

For `Cc1ccnc(NC(=O)CCC(=O)N(CC(=O)NCc2ccc(F)cc2)CC2CCCO2)c1` (centres undefined), the AC50 is inactive: > 30 µM.

Consider `CC(=O)N(C)c1ccc(N=Cc2cc3c(cc2[N+](=O)[O-])OCO3)cc1`, for which the AC50 is inactive: > 30 µM.

In the case of `CCc1c(C)nc2c(C#N)c(C)[nH]n2c1=O`, the AC50 was inactive: > 30 µM.

In the case of `CC(C)OC(=O)c1nnn(-c2nonc2N)c1CN1CCCCCC1`, the AC50 is inactive: > 30 µM.
